{"source": "patent US20090163452A1", "about": "“COMPOSITIONS AND METHODS FOR LOWERING SERUM CHOLESTEROL” (priority 2007, published 2009)", "assay": "Blood pressure and heart rate (automated aneroid devices) in the crossover study", "assay_type": "in vivo, human", "key": {"[1]": {"conditions": "during vitamin D supplementation, patients on atorvastatin"}}, "note": "The amount applied is not stated for every result.", "data": [{"molecule": "CC(C)c1c(C(=O)Nc2ccccc2)c(-c2ccccc2)c(-c2ccc(F)cc2)n1CC[C@@H](O)C[C@@H](O)CC(=O)O", "note": "[atorvastatin]", "values": [{"measurement": "heart rate", "setting": "Off-D, atorvastatin without supplemental vitamin D", "result": "81±14", "unit": "bpm"}]}, {"molecule": "vitamin D", "values": [{"measurement": "diastolic blood pressure", "setting": "[1]", "result": "69±8", "unit": "mmHg"}, {"measurement": "heart rate", "setting": "[1]", "result": "65±15", "unit": "bpm"}, {"measurement": "mean arterial pressure", "setting": "[1]", "result": "88±8", "unit": "mmHg"}, {"measurement": "systolic blood pressure", "setting": "[1]", "result": "125±12", "unit": "mmHg"}]}]}
